Patent publication US20230272069A1 (INSTITUTE OF HEMATOLOGY AND BLOOD DISEASES HOSPITAL CHINESE …, published 2023)

T1: CD22 antigen molecule (human, UniProt P20273 20-847)
T1 sequence (looked up): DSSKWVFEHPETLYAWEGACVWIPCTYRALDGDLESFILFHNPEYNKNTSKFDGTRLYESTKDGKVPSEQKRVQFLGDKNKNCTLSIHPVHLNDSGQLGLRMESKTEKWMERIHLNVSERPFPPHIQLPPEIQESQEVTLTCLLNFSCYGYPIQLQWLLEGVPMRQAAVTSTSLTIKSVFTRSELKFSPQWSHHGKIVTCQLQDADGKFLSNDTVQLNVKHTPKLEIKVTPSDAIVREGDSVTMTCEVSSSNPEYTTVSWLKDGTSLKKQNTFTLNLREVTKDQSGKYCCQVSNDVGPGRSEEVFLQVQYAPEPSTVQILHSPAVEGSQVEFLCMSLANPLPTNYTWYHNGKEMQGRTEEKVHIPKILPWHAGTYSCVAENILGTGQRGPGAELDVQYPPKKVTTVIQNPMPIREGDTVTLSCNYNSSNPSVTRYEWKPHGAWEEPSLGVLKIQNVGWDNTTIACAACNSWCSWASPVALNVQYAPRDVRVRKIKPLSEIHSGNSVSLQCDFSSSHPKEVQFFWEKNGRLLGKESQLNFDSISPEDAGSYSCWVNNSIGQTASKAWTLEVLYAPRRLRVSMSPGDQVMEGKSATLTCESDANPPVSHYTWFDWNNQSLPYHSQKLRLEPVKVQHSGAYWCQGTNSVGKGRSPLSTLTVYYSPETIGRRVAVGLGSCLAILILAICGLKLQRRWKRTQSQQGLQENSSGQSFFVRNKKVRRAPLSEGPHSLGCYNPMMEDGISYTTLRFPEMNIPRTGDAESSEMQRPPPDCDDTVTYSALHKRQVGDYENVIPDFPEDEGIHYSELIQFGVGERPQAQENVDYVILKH


Biological target: T1, CD22 antigen molecule
Experiment: cell-based or functional assay

degranulation level (CD107a on GFP+ cells) after co-culture with MV4-11-CD22 cells, E:T 1:1, 4 h	Binder
≥ 15%	CD22 scFv-CD8α-4-1BB-CD3ζ CAR (other) DIELTQSPSSLAVSVGEKVTMSCKSSQSLLYSSNQKNYLAWYQQKPGQSPKLLIYWASTRESGVPDRFTGSGSGTDFTLTVSSVKAEDLAVYYCQQSYSYPFTFGSGTKLEIKRGGGGSGGGGSGGGGSQVKLQQSGPELVKPGASVKISCKASGYDFSISWMNWVRQRPGQGLEWIGRIYPGDGDSNYNGKFEGKATLTADKSSSTAYMQLSGLTSVDSAVYFCARTTTMIALYAMDYWGQGTTVTVSSTTTPAPRPPTPAPTIASQPLSLRPEACRPAAGGAVHTRGLDFACDIYIWAPLAGTCGVLLLSLVITLYKRGRKKLLYIFKQPFMRPVQTTQEEDGCSCRFPEEEEGGCELRVKFSRSADAPAYQQGQNQLYNELNLGRREEYDVLDKRRGRDPEMGGKPRRKNPQEGLYNELQKDKMAEAYSEIGMKGERRRGKGHDGLYQGLSTATKDTYDALHMQALPPR
≤ 2%	CD19 scFv-CD8α-4-1BB-CD3ζ CAR (other) DIVLTQSPKFMSTSVGDRVSVTCKASQNVGTNVAWYQQKPGQSPKPLIYSATYRNSGVPDRFTGSGSGTDFTLTITNVQSKDLADYFCQQYNRYPYTSGGGTKLEIKRGGGGSGGGGSGGGGSQVQLQQSGAELVRPGSSVKISCKASGYAFSSYWMNWVKQRPGQGLEWIGQIYPGDGDTNYNGKFKGQATLTADKSSSTAYMQLSGLTSEDSAVYFCARKTISSVVDFYFDYWGQGTTLTVSSTTTPAPRPPTPAPTIASQPLSLRPEACRPAAGGAVHTRGLDFACDIYIWAPLAGTCGVLLLSLVITLYKRGRKKLLYIFKQPFMRPVQTTQEEDGCSCRFPEEEEGGCELRVKFSRSADAPAYQQGQNQLYNELNLGRREEYDVLDKRRGRDPEMGGKPRRKNPQEGLYNELQKDKMAEAYSEIGMKGERRRGKGHDGLYQGLSTATKDTYDALHMQALPPR
≥ 15%	CD22 VL-CD19 VL-CD19 VH-CD22 VH-CD8α-4-1BB-CD3ζ CAR (other) DIELTQSPSSLAVSVGEKVTMSCKSSQSLLYSSNQKNYLAWYQQKPGQSPKLLIYWASTRESGVPDRFTGSGSGTDFTLTVSSVKAEDLAVYYCQQSYSYPFTFGSGTKLEIKRGGGGSDIVLTQSPKFMSTSVGDRVSVTCKASQNVGTNVAWYQQKPGQSPKPLIYSATYRNSGVPDRFTGSGSGTDFTLTITNVQSKDLADYFCQQYNRYPYTSGGGTKLEIKRGSTSGSGKPGSGEGSTKGQVQLQQSGAELVRPGSSVKISCKASGYAFSSYWMNWVKQRPGQGLEWIGQIYPGDGDTNYNGKFKGQATLTADKSSSTAYMQLSGLTSEDSAVYFCARKTISSVVDFYFDYWGQGTTLTVSSGGGGSQVKLQQSGPELVKPGASVKISCKASGYDFSISWMNWVRQRPGQGLEWIGRIYPGDGDSNYNGKFEGKATLTADKSSSTAYMQLSGLTSVDSAVYFCARTTTMIALYAMDYWGQGTTVTVSSEFTTTPAPRPPTPAPTIASQPLSLRPEACRPAAGGAVHTRGLDFACDIYIWAPLAGTCGVLLLSLVITLYKRGRKKLLYIFKQPFMRPVQTTQEEDGCSCRFPEEEEGGCELRVKFSRSADAPAYQQGQNQLYNELNLGRREEYDVLDKRRGRDPEMGGKPRRKNPQEGLYNELQKDKMAEAYSEIGMKGERRRGKGHDGLYQGLSTATKDTYDALHMQALPPR
